# Screen size: about 300,000 compounds; about 5,400 (1.8%) were called active. This list was built around the results that the source calls inconclusive (neither active nor inactive); the mix of calls is not that of the screen. Calls follow the shape of the full dose curve; tested in HEK293 cells. Where the call is inconclusive, the potency comes from a doubtful curve fit.
# Experiment: qHTS for inhibitors of binding or entry into cells for Marburg Virus
# Conditions: Marburg virus pseudotyped entry inhibition, cell reporter; series mostly up to 37.8 µM
# Potency is read from the fitted curve at half-maximal effect.
row,Compound,Potency
1,COc1ccc(C2=Nn3c(nnc3-c3ccco3)SC2)cc1,"inconclusive: 29.1 µM [inhibitor, single point]"
2,O=C(CSc1ncccc1C(=O)O)c1ccccc1F,"inconclusive: 35.5 µM [activator, single point]"
3,Cc1cc(N2CCN(c3ccccn3)CC2)n2cc(-c3ccccc3)nc2n1,inactive
4,Cc1c(C2N3CC4(C)CN2CC(C)(C3)C4=O)c2ccccc2n1C (centres undefined),"inconclusive: 3.66 µM [inhibitor, single point]"
5,CCCCOc1ccc(C(=O)N2CCN(c3ccc(N4CCOCC4)nn3)CC2)cc1,"inconclusive: 35.5 µM [inhibitor, single point]"
6,CCc1ccc(-c2nc(SCC(=O)NCCOC)c(-c3ccc(C)cc3)[nH]2)cc1,inactive
7,CCc1ccc(CNc2nc3nc(C)c(Cc4ccccc4)c(=O)n3[nH]2)cc1,inactive
8,O=C(Nc1cccc(O)c1)c1noc2c1CCCCC2,"inconclusive: 9.2 µM [inhibitor, partial curve, poor fit]"
9,COC(=O)c1ccc(OCC(O)CN(CCO)CC(O)Cn2ccc3ccccc32)cc1 (centres undefined),"inconclusive: 12.6 µM [inhibitor, single point]"
10,COc1ccc(NC(=O)N2CCN(c3nc(-c4cccc(OC)c4)cs3)CC2)cc1,active: 23.1 µM
11,COc1ccc(NC(=O)CSc2ccc(-c3sc(C)nc3C)nn2)cc1OC,"inconclusive: 12.6 µM [inhibitor, partial curve, poor fit]"
12,COc1c(C)cc(Br)cc1C(=O)Nc1ccc(Cc2ccncc2)cc1,"inconclusive: 17.8 µM [inhibitor, partial curve, poor fit]"
13,CCCC(C)C1(CC)C(=O)NC(=Nc2ccc(F)cc2)NC1=O (centres undefined),"inconclusive: 35.5 µM [inhibitor, single point]"
14,COC(=O)c1c(NC(=O)c2ccccc2OC)sc(C(=O)N2CCOCC2)c1C,inactive
15,O=C(c1ccc(Cl)c(S(=O)(=O)N2CCCCC2)c1)N1CCN(Cc2ccccc2)CC1,inactive
16,O=C(O)c1cccc(S(=O)(=O)NCC2COc3ccccc3O2)c1 (centres undefined),"inconclusive: 15.8 µM [inhibitor, single point]"
17,Cc1ccc(C(=O)OCC(=O)NC2CC2)s1,"inconclusive: 0.282 µM [inhibitor, partial curve, poor fit]"
18,CSc1ccc(S(=O)(=O)N2CCC(C(=O)N3CCc4ccccc4C3)CC2)cc1,"inconclusive: 35.5 µM [inhibitor, single point]"
19,Cc1cc(NCC(c2ccccc2)c2ccccc2)n2ncnc2n1,"inconclusive: 35.5 µM [inhibitor, single point]"

# Ordered by length of the SMILES (high to low): part of the list above.
row,Compound,Potency
18,CSc1ccc(S(=O)(=O)N2CCC(C(=O)N3CCc4ccccc4C3)CC2)cc1,"inconclusive: 35.5 µM [inhibitor, single point]"
12,COc1c(C)cc(Br)cc1C(=O)Nc1ccc(Cc2ccncc2)cc1,"inconclusive: 17.8 µM [inhibitor, partial curve, poor fit]"
8,O=C(Nc1cccc(O)c1)c1noc2c1CCCCC2,"inconclusive: 9.2 µM [inhibitor, partial curve, poor fit]"

# — PubChem BioAssay AID540276 (National Center for Advancing Translational Sciences (NCATS), 2011)
